Experimental findings from the supplement of paper PMC12067093, “Discovery and optimisation of a covalent ligand for TRIM25 and its application to targeted protein ubiquitination” (Chemical Science, 2025) are described below.

Chains of the proteins cited; added tags and fusions are not shown. Lines headed by an entry give the natural chain unless they say otherwise; changes in a name come on top.
UniProt P55072, whole entry, looked up: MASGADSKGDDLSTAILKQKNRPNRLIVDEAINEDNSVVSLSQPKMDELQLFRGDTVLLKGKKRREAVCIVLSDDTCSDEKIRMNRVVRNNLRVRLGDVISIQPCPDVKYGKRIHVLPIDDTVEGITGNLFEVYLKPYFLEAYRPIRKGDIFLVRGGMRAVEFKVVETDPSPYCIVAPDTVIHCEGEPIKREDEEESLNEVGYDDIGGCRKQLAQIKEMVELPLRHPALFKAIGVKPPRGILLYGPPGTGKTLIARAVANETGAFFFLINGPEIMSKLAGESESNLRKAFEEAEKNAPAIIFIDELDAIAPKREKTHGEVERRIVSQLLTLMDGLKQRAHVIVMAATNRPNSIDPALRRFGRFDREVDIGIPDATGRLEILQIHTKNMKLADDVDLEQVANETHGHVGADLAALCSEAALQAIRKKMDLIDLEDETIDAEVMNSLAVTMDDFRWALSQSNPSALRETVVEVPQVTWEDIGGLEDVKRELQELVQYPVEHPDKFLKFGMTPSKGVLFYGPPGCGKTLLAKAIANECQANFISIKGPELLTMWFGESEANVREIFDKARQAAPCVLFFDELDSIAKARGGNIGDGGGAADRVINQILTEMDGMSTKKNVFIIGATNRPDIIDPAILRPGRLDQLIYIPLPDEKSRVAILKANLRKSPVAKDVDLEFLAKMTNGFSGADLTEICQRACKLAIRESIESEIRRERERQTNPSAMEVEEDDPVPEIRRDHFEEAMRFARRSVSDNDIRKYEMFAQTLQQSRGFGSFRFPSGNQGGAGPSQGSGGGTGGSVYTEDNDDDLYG
UniProt Q7Z5K2: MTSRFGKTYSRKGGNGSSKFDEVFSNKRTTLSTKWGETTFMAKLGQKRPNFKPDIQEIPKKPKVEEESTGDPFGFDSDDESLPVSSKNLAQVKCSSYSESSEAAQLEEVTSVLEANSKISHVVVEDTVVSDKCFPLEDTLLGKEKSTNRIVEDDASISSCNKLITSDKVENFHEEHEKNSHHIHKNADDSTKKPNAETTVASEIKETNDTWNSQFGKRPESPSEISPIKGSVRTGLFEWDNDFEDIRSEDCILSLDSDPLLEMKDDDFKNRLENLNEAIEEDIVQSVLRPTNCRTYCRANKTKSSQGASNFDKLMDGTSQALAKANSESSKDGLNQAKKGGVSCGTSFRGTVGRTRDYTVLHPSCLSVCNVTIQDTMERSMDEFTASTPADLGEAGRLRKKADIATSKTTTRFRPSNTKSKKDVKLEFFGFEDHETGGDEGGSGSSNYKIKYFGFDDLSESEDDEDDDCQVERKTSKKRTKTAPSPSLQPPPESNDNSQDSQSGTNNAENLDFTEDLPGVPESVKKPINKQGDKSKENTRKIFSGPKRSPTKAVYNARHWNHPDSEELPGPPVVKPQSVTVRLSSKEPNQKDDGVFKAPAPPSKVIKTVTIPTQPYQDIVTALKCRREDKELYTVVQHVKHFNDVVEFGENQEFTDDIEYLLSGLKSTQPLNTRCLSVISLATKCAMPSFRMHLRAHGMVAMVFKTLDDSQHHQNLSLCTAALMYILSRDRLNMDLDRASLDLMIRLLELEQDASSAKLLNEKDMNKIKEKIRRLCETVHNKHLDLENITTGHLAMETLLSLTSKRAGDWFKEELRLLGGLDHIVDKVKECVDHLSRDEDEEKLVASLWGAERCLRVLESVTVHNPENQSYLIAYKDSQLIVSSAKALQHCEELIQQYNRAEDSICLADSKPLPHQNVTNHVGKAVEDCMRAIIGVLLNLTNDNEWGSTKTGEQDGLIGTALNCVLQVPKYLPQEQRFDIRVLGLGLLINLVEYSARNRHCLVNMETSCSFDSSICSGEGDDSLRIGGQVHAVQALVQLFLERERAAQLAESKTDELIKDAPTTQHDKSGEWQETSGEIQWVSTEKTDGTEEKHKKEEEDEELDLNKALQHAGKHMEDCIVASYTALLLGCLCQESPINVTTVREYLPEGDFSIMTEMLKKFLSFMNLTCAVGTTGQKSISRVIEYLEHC
UniProt Q93008, whole entry, looked up: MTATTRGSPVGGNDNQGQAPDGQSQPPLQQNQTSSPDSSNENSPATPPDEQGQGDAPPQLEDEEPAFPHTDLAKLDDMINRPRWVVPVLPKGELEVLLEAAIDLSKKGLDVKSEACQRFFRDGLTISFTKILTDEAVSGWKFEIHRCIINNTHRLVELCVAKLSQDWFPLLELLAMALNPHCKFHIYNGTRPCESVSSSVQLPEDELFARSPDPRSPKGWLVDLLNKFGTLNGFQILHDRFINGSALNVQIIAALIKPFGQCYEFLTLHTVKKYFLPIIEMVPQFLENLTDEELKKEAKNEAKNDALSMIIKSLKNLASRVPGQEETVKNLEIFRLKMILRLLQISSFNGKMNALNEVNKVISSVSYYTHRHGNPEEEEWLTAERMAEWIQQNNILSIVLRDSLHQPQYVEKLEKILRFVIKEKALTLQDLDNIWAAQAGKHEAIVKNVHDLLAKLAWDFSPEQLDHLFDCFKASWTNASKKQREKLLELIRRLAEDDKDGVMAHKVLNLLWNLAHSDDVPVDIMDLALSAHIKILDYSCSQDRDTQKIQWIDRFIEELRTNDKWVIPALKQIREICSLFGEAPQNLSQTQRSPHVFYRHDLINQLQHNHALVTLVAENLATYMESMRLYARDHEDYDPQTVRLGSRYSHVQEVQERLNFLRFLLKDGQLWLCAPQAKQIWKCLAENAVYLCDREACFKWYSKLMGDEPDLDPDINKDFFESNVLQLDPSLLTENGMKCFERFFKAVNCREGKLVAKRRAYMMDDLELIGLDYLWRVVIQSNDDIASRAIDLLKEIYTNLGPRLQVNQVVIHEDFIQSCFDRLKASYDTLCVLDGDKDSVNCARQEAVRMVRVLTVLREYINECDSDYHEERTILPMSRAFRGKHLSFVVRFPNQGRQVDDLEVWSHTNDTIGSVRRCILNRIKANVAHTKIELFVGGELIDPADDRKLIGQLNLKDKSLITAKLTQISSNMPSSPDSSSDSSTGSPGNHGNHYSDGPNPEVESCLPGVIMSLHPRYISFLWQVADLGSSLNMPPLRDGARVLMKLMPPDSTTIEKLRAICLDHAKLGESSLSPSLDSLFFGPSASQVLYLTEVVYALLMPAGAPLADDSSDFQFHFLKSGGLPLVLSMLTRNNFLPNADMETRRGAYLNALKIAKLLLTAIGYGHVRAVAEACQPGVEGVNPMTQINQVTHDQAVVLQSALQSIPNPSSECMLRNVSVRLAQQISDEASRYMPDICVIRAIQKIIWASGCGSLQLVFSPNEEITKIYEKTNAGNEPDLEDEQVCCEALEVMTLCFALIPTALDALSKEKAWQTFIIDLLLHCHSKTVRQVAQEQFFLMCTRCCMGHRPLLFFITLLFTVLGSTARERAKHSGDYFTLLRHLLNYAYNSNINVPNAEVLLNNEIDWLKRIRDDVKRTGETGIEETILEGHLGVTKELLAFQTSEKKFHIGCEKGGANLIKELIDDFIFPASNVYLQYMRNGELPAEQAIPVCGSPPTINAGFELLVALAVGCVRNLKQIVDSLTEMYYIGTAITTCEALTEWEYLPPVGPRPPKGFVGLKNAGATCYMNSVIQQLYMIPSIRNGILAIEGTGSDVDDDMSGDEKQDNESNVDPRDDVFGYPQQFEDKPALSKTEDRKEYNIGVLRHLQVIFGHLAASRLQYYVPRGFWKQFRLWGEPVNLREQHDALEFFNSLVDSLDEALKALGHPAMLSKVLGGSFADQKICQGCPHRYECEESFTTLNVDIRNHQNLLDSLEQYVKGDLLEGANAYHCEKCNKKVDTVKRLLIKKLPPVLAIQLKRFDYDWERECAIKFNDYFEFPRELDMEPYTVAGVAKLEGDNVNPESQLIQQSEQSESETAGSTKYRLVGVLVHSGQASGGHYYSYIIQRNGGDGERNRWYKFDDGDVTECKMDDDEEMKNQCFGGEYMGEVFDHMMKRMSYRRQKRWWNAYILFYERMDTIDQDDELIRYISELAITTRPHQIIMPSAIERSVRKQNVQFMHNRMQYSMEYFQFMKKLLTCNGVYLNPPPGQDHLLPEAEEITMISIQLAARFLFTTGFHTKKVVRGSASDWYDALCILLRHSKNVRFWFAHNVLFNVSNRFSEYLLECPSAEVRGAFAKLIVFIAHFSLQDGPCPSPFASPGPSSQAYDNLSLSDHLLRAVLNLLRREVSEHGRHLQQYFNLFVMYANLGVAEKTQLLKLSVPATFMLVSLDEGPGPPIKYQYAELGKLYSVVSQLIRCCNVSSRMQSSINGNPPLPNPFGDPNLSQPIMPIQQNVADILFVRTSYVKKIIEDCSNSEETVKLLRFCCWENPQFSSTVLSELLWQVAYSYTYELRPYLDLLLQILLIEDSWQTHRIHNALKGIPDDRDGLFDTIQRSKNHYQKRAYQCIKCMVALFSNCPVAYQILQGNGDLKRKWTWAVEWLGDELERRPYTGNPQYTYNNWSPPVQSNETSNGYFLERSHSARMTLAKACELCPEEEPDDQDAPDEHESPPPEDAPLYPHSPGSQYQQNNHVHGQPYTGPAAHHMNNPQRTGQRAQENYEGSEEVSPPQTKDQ
UniProt Q9P0L0: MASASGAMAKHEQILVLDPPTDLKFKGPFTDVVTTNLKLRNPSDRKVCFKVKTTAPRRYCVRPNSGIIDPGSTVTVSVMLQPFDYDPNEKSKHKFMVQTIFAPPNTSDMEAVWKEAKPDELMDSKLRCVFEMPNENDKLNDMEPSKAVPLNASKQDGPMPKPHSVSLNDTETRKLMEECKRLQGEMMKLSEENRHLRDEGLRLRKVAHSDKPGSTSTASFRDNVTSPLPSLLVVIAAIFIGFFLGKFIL
UniProt Q9H270: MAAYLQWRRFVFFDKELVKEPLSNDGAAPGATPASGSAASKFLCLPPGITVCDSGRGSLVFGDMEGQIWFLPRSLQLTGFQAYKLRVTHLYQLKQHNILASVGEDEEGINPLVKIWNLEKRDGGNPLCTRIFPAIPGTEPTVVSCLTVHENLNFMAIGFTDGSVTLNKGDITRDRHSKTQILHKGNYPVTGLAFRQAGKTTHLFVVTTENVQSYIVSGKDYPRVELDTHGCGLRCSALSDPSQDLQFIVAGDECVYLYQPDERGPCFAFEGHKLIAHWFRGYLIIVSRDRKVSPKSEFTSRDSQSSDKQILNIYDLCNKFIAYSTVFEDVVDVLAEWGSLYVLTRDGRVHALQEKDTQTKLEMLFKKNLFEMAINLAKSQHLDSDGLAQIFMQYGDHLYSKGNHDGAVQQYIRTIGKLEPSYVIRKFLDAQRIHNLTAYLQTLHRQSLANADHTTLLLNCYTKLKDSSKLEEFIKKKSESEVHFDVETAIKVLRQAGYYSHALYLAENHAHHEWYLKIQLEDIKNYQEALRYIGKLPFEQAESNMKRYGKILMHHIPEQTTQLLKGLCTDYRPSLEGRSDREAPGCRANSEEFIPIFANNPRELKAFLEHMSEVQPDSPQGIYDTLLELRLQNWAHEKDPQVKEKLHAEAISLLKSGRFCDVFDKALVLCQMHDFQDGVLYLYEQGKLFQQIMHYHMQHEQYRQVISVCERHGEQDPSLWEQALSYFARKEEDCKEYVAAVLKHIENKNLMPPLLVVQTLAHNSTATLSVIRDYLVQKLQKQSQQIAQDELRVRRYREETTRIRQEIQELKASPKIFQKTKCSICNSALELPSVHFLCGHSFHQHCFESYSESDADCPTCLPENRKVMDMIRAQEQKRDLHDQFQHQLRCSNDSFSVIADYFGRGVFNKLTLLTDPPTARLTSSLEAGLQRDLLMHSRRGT
UniProt P15498: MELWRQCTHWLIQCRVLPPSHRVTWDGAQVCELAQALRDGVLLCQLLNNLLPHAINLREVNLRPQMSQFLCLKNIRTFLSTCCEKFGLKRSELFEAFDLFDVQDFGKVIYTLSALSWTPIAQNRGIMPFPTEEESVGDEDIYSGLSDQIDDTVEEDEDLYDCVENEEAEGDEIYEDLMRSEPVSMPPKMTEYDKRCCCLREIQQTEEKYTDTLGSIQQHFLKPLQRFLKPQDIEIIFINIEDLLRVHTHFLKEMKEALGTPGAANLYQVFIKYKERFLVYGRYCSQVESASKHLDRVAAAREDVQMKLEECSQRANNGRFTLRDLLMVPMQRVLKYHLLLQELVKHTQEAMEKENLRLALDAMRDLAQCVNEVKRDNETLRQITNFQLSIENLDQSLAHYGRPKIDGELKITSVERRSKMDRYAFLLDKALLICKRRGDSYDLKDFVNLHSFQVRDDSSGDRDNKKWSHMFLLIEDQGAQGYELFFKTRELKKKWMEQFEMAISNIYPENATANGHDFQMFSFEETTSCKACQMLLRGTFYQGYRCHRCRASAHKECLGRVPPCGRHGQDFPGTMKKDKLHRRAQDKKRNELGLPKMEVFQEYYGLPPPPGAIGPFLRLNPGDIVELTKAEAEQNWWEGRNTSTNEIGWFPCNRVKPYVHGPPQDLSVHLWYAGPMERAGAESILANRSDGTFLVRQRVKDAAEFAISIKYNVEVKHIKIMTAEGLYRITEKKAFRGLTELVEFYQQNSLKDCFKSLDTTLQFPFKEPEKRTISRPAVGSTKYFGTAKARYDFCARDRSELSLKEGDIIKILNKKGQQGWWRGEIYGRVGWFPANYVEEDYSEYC

The list shows a part of the results.

Compound in the assay: CC1Cc2ccccc2N1C(=O)C1CCCN(C1)C(=O)CCl (mixture of isomers) [TRIM25 ligand 11 (diastereomer mixture)]
Put plainly: probe-labelled cysteine peptide fold change vs DMSO (competition) (log2 fold change); higher = less target engagement (more negative = stronger competition). As to conditions: THP-1, incubation time: 4 h.
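Further: competitive chemoproteomic profiling in live THP-1 cells with an iodoacetamide desthiobiotin (IA-DTB) probe, comparing probe-labelled peptide intensities in compound-treated cells against DMSO-treated controls.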

Take “VCP_P55072_77_EAVCIVLSDDTCSDEK (UniProt P55072)”: the “probe-labelled cysteine peptide fold change” value by setting is: (10 µM) -0.0814; (50 µM) 0.0201.

As to “USP7_Q93009_799_VDVIFCDK (UniProt Q93009)”, the “probe-labelled cysteine peptide fold change” value (10 µM) came to 0.0636 and the “probe-labelled cysteine peptide fold change” value (50 µM) amounted to 0.0592.

Take “VCP_P55072_535_AIANECQANFISIK (UniProt P55072)”: the “probe-labelled cysteine peptide fold change” value is -0.0612 (10 µM) and -0.135 (50 µM).

As to “VPS18_Q9P253_741_QCADLPEEDEELRK (UniProt Q9P253)”, the “probe-labelled cysteine peptide fold change” value by setting is: (10 µM) -0.0236; (50 µM) -0.0289.

In the case of “VAT1_Q99536_324_AVCGFHLGYLDGEVELVSGVVAR (UniProt Q99536)”, the “probe-labelled cysteine peptide fold change” value was 0.0529 (10 µM) and -0.0181 (50 µM).

Regarding “UTRN_P46939_1059_QLDQCSAFVNEIETIESSLK (UniProt P46939)”, the “probe-labelled cysteine peptide fold change” value was 0.0719 (10 µM) and 0.12 (50 µM).

As for “VAV3_Q9UKW4_7_QCAQWLIHCK (UniProt Q9UKW4)”, the “probe-labelled cysteine peptide fold change” value was 0.0168 (10 µM) and 0.168 (50 µM).

Turning to “WAPL_Q7Z5K2_675_CLSVISLATK (UniProt Q7Z5K2)”, the “probe-labelled cysteine peptide fold change” value runs as follows: (10 µM) 0.000138; (50 µM) 0.125.

“WAPL_Q7Z5K2_344_KGGVSCGTSFR (UniProt Q7Z5K2)”: the “probe-labelled cysteine peptide fold change” value (10 µM) was -0.0736 and the “probe-labelled cysteine peptide fold change” value (50 µM) was -0.111.

As to “VPS39_Q96JC1_681_LICDFPFDGLLEER (UniProt Q96JC1)”, the “probe-labelled cysteine peptide fold change” value (10 µM) was determined as 0.145 and the “probe-labelled cysteine peptide fold change” value (50 µM) amounted to 0.086.

With “VPS41_P49754_638_DSTHCPLEK (UniProt P49754)”, the “probe-labelled cysteine peptide fold change” value came out at 0.227 (10 µM) and 0.214 (50 µM).

In the case of “VCP_P55072_572_QAAPCVLFFDELDSIAK (UniProt P55072)”, the “probe-labelled cysteine peptide fold change” value runs as follows: (10 µM) -0.128; (50 µM) -0.234.

For “VCP_P55072_184_VVETDPSPYCIVAPDTVIHCEGEPIKR (UniProt P55072)”, the “probe-labelled cysteine peptide fold change” value by setting is: (10 µM) 0.211; (50 µM) -0.0862.

Consider “WAC_Q9BTA9_553_STCSLTPALAAHFSENLIK (UniProt Q9BTA9)”, for which the “probe-labelled cysteine peptide fold change” value is 0.128 (10 µM) and -0.221 (50 µM).

Regarding “VPS53_Q5VIR6_242_DACLVANILDPR (UniProt Q5VIR6)”, the “probe-labelled cysteine peptide fold change” value is, setting by setting: (10 µM) -0.0484; (50 µM) 0.511.

“VPS26B_Q4G0F5_334_TPSQLSDNNCR (UniProt Q4G0F5)”: the “probe-labelled cysteine peptide fold change” value (10 µM) was determined as 0.0807 and the “probe-labelled cysteine peptide fold change” value (50 µM) was -0.165.

In the case of “VPS16_Q9H269_817_NEAELSLVLSHCTGATDGATADK (UniProt Q9H269)”, the “probe-labelled cysteine peptide fold change” value reads like this: (10 µM) 0.166; (50 µM) 0.0291.

For the target “USP9X_Q93008_842_ASYDTLCVLDGDKDSVNCAR (UniProt Q93008)”, the “probe-labelled cysteine peptide fold change” value is -0.133 (10 µM) and -0.0909 (50 µM).

With “VPS35_Q96QK1_156_NYLLQCTR (UniProt Q96QK1)”, the “probe-labelled cysteine peptide fold change” value turned out to be 0.106 (10 µM) and 0.0964 (50 µM).

Take “VIPAS39_Q9H9C1_446_CHDVVIDTYR (UniProt Q9H9C1)”: the “probe-labelled cysteine peptide fold change” value (10 µM) was found to be 0.0154 and the “probe-labelled cysteine peptide fold change” value (50 µM) was -0.011.

Regarding “UVRAG_Q9P2Y5_186_TILLQVDQNCVR (UniProt Q9P2Y5)”, the “probe-labelled cysteine peptide fold change” value was -0.0211 (10 µM) and 0.144 (50 µM).

For “VIM_P08670_328_RQVQSLTCEVDALK (UniProt P08670)”, the “probe-labelled cysteine peptide fold change” value is, setting by setting: (10 µM) -0.0573; (50 µM) -0.0122.

On to “VPS16_Q9H269_763_SPIGYLPFVEICMK (UniProt Q9H269)”, for which the “probe-labelled cysteine peptide fold change” value reads like this: (10 µM) -0.00479; (50 µM) 0.0346.

Regarding “VPS13B_Q7Z7G8_3937_VACDVEVDGVR (UniProt Q7Z7G8)”, the “probe-labelled cysteine peptide fold change” value is, setting by setting: (10 µM) 0.0676; (50 µM) -0.592.

On to “VEZF1_Q14119_319_THGQSQSINCNTCK (UniProt Q14119)”, for which the “probe-labelled cysteine peptide fold change” value is -0.137 (10 µM) and -0.311 (50 µM).

As for “VLDLR_P98155_33_CEPSQFQCTNGR (UniProt P98155)”, the “probe-labelled cysteine peptide fold change” value runs as follows: (10 µM) -0.0235; (50 µM) -0.0407.

As for “VASP_P50552_334_SSSSVTTSETQPCTPSSSDYSDLQR (UniProt P50552)”, the “probe-labelled cysteine peptide fold change” value by setting is: (10 µM) -0.0716; (50 µM) -0.102.

Take “WAPL_Q7Z5K2_906_AEDSICLADSKPLPHQNVTNHVGK (UniProt Q7Z5K2)”: the “probe-labelled cysteine peptide fold change” value runs as follows: (10 µM) 0.0419; (50 µM) -0.166.

Take “VCPIP1_Q96JH7_469+472_CLLCGALSELHVPPEWLAPGGK (UniProt Q96JH7)”: the “probe-labelled cysteine peptide fold change” value reads like this: (10 µM) -0.0947; (50 µM) -0.264.

Take “USP9X_Q93008_1451_KFHIGCEK (UniProt Q93008)”: the “probe-labelled cysteine peptide fold change” value is 0.0359 (10 µM) and -0.0114 (50 µM).

As to “VAMP7_P51809_21_HAWCGGNFLEVTEQILAK (UniProt P51809)”, the “probe-labelled cysteine peptide fold change” value runs as follows: (10 µM) 0.0773; (50 µM) 0.099.

“VAC14_Q08AM6_79_KGGLIGLAACSIALGK (UniProt Q08AM6)”: the “probe-labelled cysteine peptide fold change” value by setting is: (10 µM) -0.0529; (50 µM) -0.0136.

“UTP6_Q9NYH9_524_EQESCNMANIR (UniProt Q9NYH9)”: the “probe-labelled cysteine peptide fold change” value reads like this: (10 µM) -0.0727; (50 µM) -0.0847.

“VAPA_Q9P0L0_128_CVFEMPNENDKLNDMEPSK (UniProt Q9P0L0)”: the “probe-labelled cysteine peptide fold change” value by setting is: (10 µM) -0.158; (50 µM) -0.495.

For the target “UTP23_Q9BRU9_35_NNFGVREPYQILLDGTFCQAALR (UniProt Q9BRU9)”, the “probe-labelled cysteine peptide fold change” value is -0.28 (10 µM) and -0.275 (50 µM).

On to “VAT1L_Q9HCJ6_78_ACGLNFIDLMVR (UniProt Q9HCJ6)”, for which the “probe-labelled cysteine peptide fold change” value was 0.0668 (10 µM) and -0.122 (50 µM).

With “VPS11_Q9H270_568_GLCTDYRPSLEGR (UniProt Q9H270)”, the “probe-labelled cysteine peptide fold change” value (10 µM) was 0.0588 and the “probe-labelled cysteine peptide fold change” value (50 µM) is -0.176.

Take “VAV1_P15498_652_NTSTNEIGWFPCNR (UniProt P15498)”: the “probe-labelled cysteine peptide fold change” value (10 µM) was found to be 0.00386 and the “probe-labelled cysteine peptide fold change” value (50 µM) was -0.0666.

On to “VAV1_P15498_71_EVNLRPQMSQFLCLK (UniProt P15498)”, for which the “probe-labelled cysteine peptide fold change” value runs as follows: (10 µM) -0.0166; (50 µM) 0.0874.

Consider “WAPL_Q7Z5K2_133_CFPLEDTLLGK (UniProt Q7Z5K2)”, for which the “probe-labelled cysteine peptide fold change” value by setting is: (10 µM) -0.12; (50 µM) -0.223.

Consider “VARS_P26640_917_ADFPAGIPECGTDALR (UniProt P26640)”, for which the “probe-labelled cysteine peptide fold change” value runs as follows: (10 µM) -0.0936; (50 µM) 0.06.

For “VPS11_Q9H270_890_CSNDSFSVIADYFGR (UniProt Q9H270)”, the “probe-labelled cysteine peptide fold change” value (10 µM) is -0.0101 and the “probe-labelled cysteine peptide fold change” value (50 µM) is -0.0874.

Turning to “VPS13C_Q709C8_2395_SCLNVFNNLAK (UniProt Q709C8)”, the “probe-labelled cysteine peptide fold change” value was 0.0796 (10 µM) and 0.107 (50 µM).
